# Experimental data as given in patent publication US20240067685A1, “HIDDEN ANTIBIOTICS IN THE HUMAN PROTEOME” (priority 2022, published 2024).
# At least one peptide structure holds a part that was inferred or is arguable (an end, a ring closure or a residue). Non-standard residues stand in square brackets, D forms with d. Residues, ends and D or L forms follow the SMILES beside them.
# System: four bacterial strains
# Assay: Antimicrobial activity upon pre-incubation in 10% serum, four strains
# Type: cell-based
# Settings: 16 hours of pre-incubation in 10% serum
compound,measurement,value
CC[C@@H](C)[C@@H](NC(=O)[C@H]1CCCN1C(=O)[C@@H](CO)NC(=O)[C@H]1CCCN1C(=O)[C@@H](CCCCN)NC(=O)[C@@H](CCCNC(=N)N)NC(=O)[C@H]1CCCN1C(=O)[C@H](NC(=O)[C@@H](CCCCN)NC(=O)[C@@H](CC(C)C)NC(=O)[C@@H](CC(C)C)NC(=O)[C@@H](CO)NC(=O)CN)C(C)C)C(=O)N[C@@H](C(=O)N[C@H](Cc1ccccc1)C(=O)N[C@H](CCCCN)C(=O)N[C@H](CC(C)C)C(=O)N[C@H](CCCCN)C(=O)NCC(=O)N1CCC[C@@H]1C(=O)N[C@H](CCCCN)C(=O)N[C@H](CC(C)C)C(=O)N[C@H](C)C(=O)N[C@@H](C(=O)N[C@H](Cc1c[nH]cn1)C(=O)N1CCC[C@@H]1C(=O)O)C(C)C)[C@H](C)CC [(ri)-r(P)ApoBS^Pro] (H-G[dS][dL][dL][dK][dV][dP][dR][dK][dP][dS][dP][dI][dI][dF][dK][dL][dK]G[dP][dK][dL][dA][dV][dH][dP]-OH; N-terminus and C-terminus assumed),antimicrobial activity after pre-incubation in serum,remained constant
